In this assay the target is T1, SHMT2-BirA*-Flag (mouse) (UniProt Q9CZN7).
T1 sequence: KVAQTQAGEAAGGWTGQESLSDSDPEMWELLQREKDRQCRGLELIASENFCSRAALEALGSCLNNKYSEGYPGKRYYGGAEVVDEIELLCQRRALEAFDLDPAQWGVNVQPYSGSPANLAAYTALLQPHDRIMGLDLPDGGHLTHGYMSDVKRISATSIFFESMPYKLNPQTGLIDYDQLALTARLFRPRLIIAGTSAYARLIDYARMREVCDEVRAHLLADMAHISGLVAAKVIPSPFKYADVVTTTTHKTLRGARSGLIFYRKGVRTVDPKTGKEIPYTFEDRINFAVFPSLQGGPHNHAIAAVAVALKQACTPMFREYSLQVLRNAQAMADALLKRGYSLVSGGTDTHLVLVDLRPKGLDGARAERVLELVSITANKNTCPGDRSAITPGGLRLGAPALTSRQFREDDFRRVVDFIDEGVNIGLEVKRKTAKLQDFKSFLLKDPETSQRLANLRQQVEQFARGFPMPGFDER
Description: proximity labelling; BioID in HeLa cells with Tet-induced SHMT2-BirA*-Flag; biotinylated proteins purified on immobilized streptavidin, trypsin digestion, MS; compared with BirA*-Flag alone and CHCHD2-BirA*-Flag (n = 3; >32-fold, p <0.05).

Results are given in words; binding and its absence hold for the method and conditions named. In cells and extracts the contact can be indirect. These calls come from enrichment with a bait or labelling near it, and not all partners need be listed. Where a sequence is shown, tags or fusion partners need not be part of it.

The text below walks through data of PMC7480864.

B1: Electron transfer flavoprotein subunit beta (protein, UniProt P38117 1-255)
chain: MAELRVLVAVKRVIDYAVKIRVKPDRTGVVTDGVKHSMNPFCEIAVEEAVRLKEKKLVKEVIAVSCGPAQCQETIRTALAMGADRGIHVEVPPAEAERLGPLQVARVLAKLAEKEKVDLVLLGKQAIDDDCNQTGQMTAGFLDWPQGTFASQVTLEGDKLKVEREIDGGLETLRLKLPAVVTADLRLNEPRYATLPNIMKAKKKKIEVIKPGDLGVDLTSKLSVISVEDPPQRTAGVKVETTEDLVAKLKEIGRI
B1: the binding entry was “binds”.

B2: Cob(I)yrinic acid a,c-diamide adenosyltransferase, mitochondrial (protein, UniProt Q96EY8 33-250)
chain: QSRGPQGVEDGDRPQPSSKTPRIPKIYTKTGDKGFSSTFTGERRPKDDQVFEAVGTTDELSSAIGFALELVTEKGHTFAEELQKIQCTLQDVGSALATPCSSAREAHLKYTTFKAGPILELEQWIDKYTSQLPPLTAFILPSGGKISSALHFCRAVCRRAERRVVPLVQMGETDANVAKFLNRLSDYLFTLARYAAMKEGNQEKIYMKNDPSAESEGL
Regarding B2, the binding entry was “binds”.

B3: Acyl-CoA dehydrogenase family member 9, mitochondrial (protein, UniProt Q9H845 38-621)
chain: AFAKELFLGKIKKKEVFPFPEVSQDELNEINQFLGPVEKFFTEEVDSRKIDQEGKIPDETLEKLKSLGLFGLQVPEEYGGLGFSNTMYSRLGEIISMDGSITVTLAAHQAIGLKGIILAGTEEQKAKYLPKLASGEHIAAFCLTEPASGSDAASIRSRATLSEDKKHYILNGSKVWITNGGLANIFTVFAKTEVVDSDGSVKDKITAFIVERDFGGVTNGKPEDKLGIRGSNTCEVHFENTKIPVENILGEVGDGFKVAMNILNSGRFSMGSVVAGLLKRLIEMTAEYACTRKQFNKRLSEFGLIQEKFALMAQKAYVMESMTYLTAGMLDQPGFPDCSIEAAMVKVFSSEAAWQCVSEALQILGGLGYTRDYPYERILRDTRILLIFEGTNEILRMYIALTGLQHAGRILTTRIHELKQAKVSTVMDTVGRRLRDSLGRTVDLGLTGNHGVVHPSLADSANKFEENTYCFGRTVETLLLRFGKTIMEEQLVLKRVANILINLYGMTAVLSRASRSIRIGLRNHDHEVLLANTFCVEAYLQNLFSLSQLDKYAPENLDEQIKKVSQQILEKRAYICAHPLDRTC
Consider B3, for which the binding result was “binds”.

B4: 3-hydroxyisobutyryl-CoA hydrolase, mitochondrial (protein, UniProt Q6NVY1 33-386)
chain: DAAEEVLLEKKGCTGVITLNRPKFLNALTLNMIRQIYPQLKKWEQDPETFLIIIKGAGGKAFCAGGDIRVISEAEKAKQKIAPVFFREEYMLNNAVGSCQKPYVALIHGITMGGGVGLSVHGQFRVATEKCLFAMPETAIGLFPDVGGGYFLPRLQGKLGYFLALTGFRLKGRDVYRAGIATHFVDSEKLAMLEEDLLALKSPSKENIASVLENYHTESKIDRDKSFILEEHMDKINSCFSANTVEEIIENLQQDGSSFALEQLKVINKMSPTSLKITLRQLMEGSSKTLQEVLTMEYRLSQACMRGHDFHEGVRAVLIDKDQSPKWKPADLKEVTEEDLNNHFKSLGSSDLKF
For B4, the binding result was “binds”.

B5: Reticulon-4-interacting protein 1, mitochondrial (protein, UniProt Q8WWV3 41-396)
chain: TVMPAWVIDKYGKNEVLRFTQNMMMPIIHYPNEVIVKVHAASVNPIDVNMRSGYGATALNMKRDPLHVKIKGEEFPLTLGRDVSGVVMECGLDVKYFKPGDEVWAAVPPWKQGTLSEFVVVSGNEVSHKPKSLTHTQAASLPYVALTAWSAINKVGGLNDKNCTGKRVLILGASGGVGTFAIQVMKAWDAHVTAVCSQDASELVRKLGADDVIDYKSGSVEEQLKSLKPFDFILDNVGGSTETWAPDFLKKWSGATYVTLVTPFLLNMDRLGIADGMLQTGVTVGSKALKHFWKGVHYRWAFFMASGPCLDDIAELVDAGKIRPVIEQTFPFSKVPEAFLKVERGHARGKTVINVV
As to B5, the binding result is “binds”.

B6: Inorganic pyrophosphatase 2, mitochondrial (protein, UniProt Q9H2U2 33-334)
chain: ALYHTEERGQPCSQNYRLFFKNVTGHYISPFHDIPLKVNSKEENGIPMKKARNDEYENLFNMIVEIPRWTNAKMEIATKEPMNPIKQYVKDGKLRYVANIFPYKGYIWNYGTLPQTWEDPHEKDKSTNCFGDNDPIDVCEIGSKILSCGEVIHVKILGILALIDEGETDWKLIAINANDPEASKFHDIDDVKKFKPGYLEATLNWFRLYKVPDGKPENQFAFNGEFKNKAFALEVIKSTHQCWKALLMKKCNGGAINCTNVQISDSPFRCTQEEARSLVESVSSSPNKESNEEEQVWHFLGK
As for B6, the binding result is on record as “binds”.
